Results published in article PMC6494879, “Drug resistance emergence in macaques administered cabotegravir long-acting for pre-exposure prophylaxis during acute SHIV infection” (Nature Communications, 2019).
This continues a long series; more values of the same kind are listed elsewhere.

Tested on: RT-SHIV
Assay: Plasma SHIV RNA (RT-PCR) in RT-SHIV-infected macaques treated with CAB LA

C[C@H]1CO[C@@H]2Cn3cc(C(=O)NCc4ccc(F)cc4F)c(=O)c(O)c3C(=O)N12 [CAB, cabotegravir]
SHIV RNA copies/ml (macaque 01D520, day 0): 49 copies/ml | SHIV RNA copies/ml (macaque 01D520, day 2): 24054 copies/ml | SHIV RNA copies/ml (macaque 01D520, day 4): 234571 copies/ml | SHIV RNA copies/ml (macaque 01D520, day 7): 2378294 copies/ml | SHIV RNA copies/ml (macaque 01D520, day 9): 13185480 copies/ml | SHIV RNA copies/ml (macaque 01D520, day 11): 9939004 copies/ml | SHIV RNA copies/ml (macaque 01D520, day 71): 74 copies/ml | SHIV RNA copies/ml (macaque 01D520, day 74): 10 copies/ml | SHIV RNA copies/ml (macaque 01D520, day 78): 49 copies/ml | SHIV RNA copies/ml (macaque 01D520, day 81): 49 copies/ml | SHIV RNA copies/ml (macaque 01D520, day 85): 121 copies/ml | SHIV RNA copies/ml (macaque 01D520, day 88): 115 copies/ml | SHIV RNA copies/ml (macaque 01D520, day 92): 68 copies/ml | SHIV RNA copies/ml (macaque 01D520, day 95): 49 copies/ml | SHIV RNA copies/ml (macaque 01D520, day 102): 49 copies/ml | SHIV RNA copies/ml (macaque 01D520, day 106): 74 copies/ml | SHIV RNA copies/ml (macaque 01D520, day 115): 3507 copies/ml | SHIV RNA copies/ml (macaque 01D520, day 120): 30409 copies/ml | SHIV RNA copies/ml (macaque 01D520, day 134): 3801 copies/ml | SHIV RNA copies/ml (macaque 01D520, day 143): 2184 copies/ml | SHIV RNA copies/ml (macaque 01D520, day 148): 4184 copies/ml | SHIV RNA copies/ml (macaque 01D520, day 155): 3234 copies/ml | SHIV RNA copies/ml (macaque 01D520, day 162): 3039 copies/ml | SHIV RNA copies/ml (macaque 01D520, day 170): 2400 copies/ml | SHIV RNA copies/ml (macaque 01D520, day 176): 908 copies/ml | SHIV RNA copies/ml (macaque 01D520, day 183): 9714 copies/ml | SHIV RNA copies/ml (macaque 01D520, day 190): 12824 copies/ml | SHIV RNA copies/ml (macaque 01D520, day 197): 16826 copies/ml | SHIV RNA copies/ml (macaque 01D520, day 204): 18749 copies/ml | SHIV RNA copies/ml (macaque 10D181, day 0): 49 copies/ml | SHIV RNA copies/ml (macaque 10D181, day 2): 34540 copies/ml | SHIV RNA copies/ml (macaque 10D181, day 4): 590862 copies/ml | SHIV RNA copies/ml (macaque 10D181, day 7): 3088710 copies/ml | SHIV RNA copies/ml (macaque 10D181, day 9): 8751291 copies/ml | SHIV RNA copies/ml (macaque 10D181, day 11): 4010088 copies/ml | SHIV RNA copies/ml (macaque 10D181, day 67): 66 copies/ml | SHIV RNA copies/ml (macaque 10D181, day 71): 336 copies/ml | SHIV RNA copies/ml (macaque 10D181, day 74): 374 copies/ml | SHIV RNA copies/ml (macaque 10D181, day 78): 128 copies/ml | SHIV RNA copies/ml (macaque 10D181, day 81): 966 copies/ml | SHIV RNA copies/ml (macaque 10D181, day 85): 187 copies/ml | SHIV RNA copies/ml (macaque 10D181, day 88): 72 copies/ml | SHIV RNA copies/ml (macaque 10D181, day 92): 188 copies/ml | SHIV RNA copies/ml (macaque 10D181, day 95): 112 copies/ml | SHIV RNA copies/ml (macaque 10D181, day 102): 5488 copies/ml | SHIV RNA copies/ml (macaque 10D181, day 106): 26903 copies/ml | SHIV RNA copies/ml (macaque 10D181, day 115): 50275 copies/ml | SHIV RNA copies/ml (macaque 10D181, day 120): 64049 copies/ml | SHIV RNA copies/ml (macaque 10D181, day 134): 56265 copies/ml | SHIV RNA copies/ml (macaque 10D181, day 143): 62966 copies/ml | SHIV RNA copies/ml (macaque 10D181, day 148): 84964 copies/ml | SHIV RNA copies/ml (macaque 10D181, day 155): 89398 copies/ml | SHIV RNA copies/ml (macaque 10D181, day 162): 97853 copies/ml | SHIV RNA copies/ml (macaque 10D181, day 170): 132357 copies/ml | SHIV RNA copies/ml (macaque 10D181, day 176): 167841 copies/ml | SHIV RNA copies/ml (macaque 10D181, day 183): 261543 copies/ml | SHIV RNA copies/ml (macaque 10D181, day 190): 245129 copies/ml | SHIV RNA copies/ml (macaque 10D181, day 197): 596247 copies/ml | SHIV RNA copies/ml (macaque 10D181, day 204): 1994912 copies/ml | SHIV RNA copies/ml (macaque 33996, day 0): 49 copies/ml | SHIV RNA copies/ml (macaque 33996, day 2): 837 copies/ml | SHIV RNA copies/ml (macaque 33996, day 4): 10458 copies/ml | SHIV RNA copies/ml (macaque 33996, day 7): 158776 copies/ml | SHIV RNA copies/ml (macaque 33996, day 9): 2056891 copies/ml | SHIV RNA copies/ml (macaque 33996, day 11): 1239140 copies/ml | SHIV RNA copies/ml (macaque 33996, day 67): 49 copies/ml | SHIV RNA copies/ml (macaque 33996, day 71): 344 copies/ml | SHIV RNA copies/ml (macaque 33996, day 74): 49 copies/ml | SHIV RNA copies/ml (macaque 33996, day 78): 49 copies/ml | SHIV RNA copies/ml (macaque 33996, day 81): 80 copies/ml | SHIV RNA copies/ml (macaque 33996, day 85): 49 copies/ml | SHIV RNA copies/ml (macaque 33996, day 88): 49 copies/ml | SHIV RNA copies/ml (macaque 33996, day 92): 21 copies/ml | SHIV RNA copies/ml (macaque 33996, day 95): 49 copies/ml | SHIV RNA copies/ml (macaque 33996, day 102): 49 copies/ml | SHIV RNA copies/ml (macaque 33996, day 106): 49 copies/ml | SHIV RNA copies/ml (macaque 33996, day 115): 1807 copies/ml | SHIV RNA copies/ml (macaque 33996, day 120): 669 copies/ml | SHIV RNA copies/ml (macaque 33996, day 134): 1829 copies/ml | SHIV RNA copies/ml (macaque 33996, day 143): 1935 copies/ml | SHIV RNA copies/ml (macaque 33996, day 148): 144 copies/ml | SHIV RNA copies/ml (macaque 33996, day 155): 101 copies/ml | SHIV RNA copies/ml (macaque 33996, day 162): 388 copies/ml | SHIV RNA copies/ml (macaque 33996, day 170): 49 copies/ml | SHIV RNA copies/ml (macaque 33996, day 176): 200 copies/ml | SHIV RNA copies/ml (macaque 33996, day 183): 49 copies/ml | SHIV RNA copies/ml (macaque 33996, day 190): 49 copies/ml | SHIV RNA copies/ml (macaque 33996, day 197): 559 copies/ml
